In US20210269519A1:
No constants are given. Whether binding was seen depends on the method and setting. Binding seen in cells or lysates may run through a third protein. Some entries that bind do so weakly or less than the wild type. For some assays here: Tags and fused reporters may be left off the sequences shown.

Chains of the proteins cited; added tags and fusions are not shown. Lines headed by an entry give the natural chain unless they say otherwise; changes in a name come on top. Residues count along the entry.
UniProt P35222: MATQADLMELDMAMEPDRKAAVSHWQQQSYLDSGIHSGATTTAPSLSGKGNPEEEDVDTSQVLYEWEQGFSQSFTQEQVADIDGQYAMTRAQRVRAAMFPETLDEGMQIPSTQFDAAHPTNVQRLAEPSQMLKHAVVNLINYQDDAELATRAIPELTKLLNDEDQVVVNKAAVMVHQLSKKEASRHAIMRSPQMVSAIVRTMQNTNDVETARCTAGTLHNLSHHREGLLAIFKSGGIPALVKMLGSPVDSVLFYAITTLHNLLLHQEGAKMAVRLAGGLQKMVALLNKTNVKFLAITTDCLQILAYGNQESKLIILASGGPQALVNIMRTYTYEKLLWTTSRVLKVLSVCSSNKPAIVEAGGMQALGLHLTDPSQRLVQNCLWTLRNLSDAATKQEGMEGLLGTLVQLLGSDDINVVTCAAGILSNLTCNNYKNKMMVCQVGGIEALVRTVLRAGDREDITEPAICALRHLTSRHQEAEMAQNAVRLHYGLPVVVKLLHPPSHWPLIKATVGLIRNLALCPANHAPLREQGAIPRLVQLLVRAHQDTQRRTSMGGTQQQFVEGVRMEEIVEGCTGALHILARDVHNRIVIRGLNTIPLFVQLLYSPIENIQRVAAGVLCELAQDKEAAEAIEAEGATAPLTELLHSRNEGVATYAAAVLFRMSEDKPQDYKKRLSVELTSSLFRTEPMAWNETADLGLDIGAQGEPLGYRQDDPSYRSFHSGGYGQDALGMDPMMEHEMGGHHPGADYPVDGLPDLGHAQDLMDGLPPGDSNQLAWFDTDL
UniProt P49841: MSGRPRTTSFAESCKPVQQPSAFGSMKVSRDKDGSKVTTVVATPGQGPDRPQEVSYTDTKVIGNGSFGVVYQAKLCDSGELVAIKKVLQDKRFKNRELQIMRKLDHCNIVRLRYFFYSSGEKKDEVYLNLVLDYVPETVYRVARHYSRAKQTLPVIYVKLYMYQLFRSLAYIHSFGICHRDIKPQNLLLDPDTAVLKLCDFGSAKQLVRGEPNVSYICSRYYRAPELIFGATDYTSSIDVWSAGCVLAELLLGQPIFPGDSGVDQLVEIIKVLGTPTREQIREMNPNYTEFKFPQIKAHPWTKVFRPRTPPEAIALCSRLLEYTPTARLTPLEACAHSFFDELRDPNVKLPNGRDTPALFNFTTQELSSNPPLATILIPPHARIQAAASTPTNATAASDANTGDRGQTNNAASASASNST
UniProt Q9UKV5: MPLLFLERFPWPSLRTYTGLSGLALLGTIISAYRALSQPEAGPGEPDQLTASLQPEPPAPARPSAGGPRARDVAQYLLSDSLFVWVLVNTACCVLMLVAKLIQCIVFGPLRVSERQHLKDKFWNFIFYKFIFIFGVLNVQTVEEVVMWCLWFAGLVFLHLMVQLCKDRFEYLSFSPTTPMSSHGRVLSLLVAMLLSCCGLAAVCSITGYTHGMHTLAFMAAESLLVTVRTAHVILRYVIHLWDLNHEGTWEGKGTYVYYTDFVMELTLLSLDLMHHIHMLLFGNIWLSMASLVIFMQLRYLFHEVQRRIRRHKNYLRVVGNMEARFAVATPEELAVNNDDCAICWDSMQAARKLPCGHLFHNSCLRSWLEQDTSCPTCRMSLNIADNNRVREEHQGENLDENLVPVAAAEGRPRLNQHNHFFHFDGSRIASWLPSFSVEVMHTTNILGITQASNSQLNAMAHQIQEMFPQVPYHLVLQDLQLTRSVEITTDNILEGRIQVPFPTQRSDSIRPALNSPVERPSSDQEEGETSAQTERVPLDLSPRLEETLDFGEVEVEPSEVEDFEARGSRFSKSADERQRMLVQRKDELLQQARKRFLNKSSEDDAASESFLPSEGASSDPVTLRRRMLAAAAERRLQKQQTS
UniProt Q9ULT6, residues 56-936: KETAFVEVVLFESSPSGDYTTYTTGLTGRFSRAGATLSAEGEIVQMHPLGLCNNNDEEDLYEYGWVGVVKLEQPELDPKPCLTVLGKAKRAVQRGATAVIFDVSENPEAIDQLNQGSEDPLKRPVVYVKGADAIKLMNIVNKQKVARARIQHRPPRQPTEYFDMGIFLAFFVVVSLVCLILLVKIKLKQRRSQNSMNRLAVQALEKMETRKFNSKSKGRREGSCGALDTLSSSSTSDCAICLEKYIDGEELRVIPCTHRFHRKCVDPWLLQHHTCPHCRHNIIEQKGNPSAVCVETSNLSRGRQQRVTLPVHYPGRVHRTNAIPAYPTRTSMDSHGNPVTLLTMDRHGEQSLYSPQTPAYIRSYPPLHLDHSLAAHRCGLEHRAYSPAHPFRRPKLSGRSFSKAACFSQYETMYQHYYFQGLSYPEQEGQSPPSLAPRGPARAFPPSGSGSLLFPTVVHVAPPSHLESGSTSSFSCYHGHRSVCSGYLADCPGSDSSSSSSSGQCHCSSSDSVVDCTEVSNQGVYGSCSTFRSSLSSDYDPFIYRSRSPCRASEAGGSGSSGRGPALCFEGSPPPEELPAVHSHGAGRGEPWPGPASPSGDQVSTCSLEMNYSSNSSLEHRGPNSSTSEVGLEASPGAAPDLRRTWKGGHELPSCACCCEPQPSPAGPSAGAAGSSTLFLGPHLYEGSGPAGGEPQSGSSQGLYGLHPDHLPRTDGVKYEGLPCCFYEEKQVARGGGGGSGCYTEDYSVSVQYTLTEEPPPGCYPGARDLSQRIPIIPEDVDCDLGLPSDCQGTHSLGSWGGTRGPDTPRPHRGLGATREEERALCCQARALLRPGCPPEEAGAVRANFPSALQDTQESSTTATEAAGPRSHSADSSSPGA

Key:
[1] = target: T1, Flag tagged-human Lmbr1l (limb region 1 like, LMBR1L) (human) (UniProt Q6UX01); assay: anti-FLAG co-IP from HEK293T lysate + LC-MS/MS
T1 sequence: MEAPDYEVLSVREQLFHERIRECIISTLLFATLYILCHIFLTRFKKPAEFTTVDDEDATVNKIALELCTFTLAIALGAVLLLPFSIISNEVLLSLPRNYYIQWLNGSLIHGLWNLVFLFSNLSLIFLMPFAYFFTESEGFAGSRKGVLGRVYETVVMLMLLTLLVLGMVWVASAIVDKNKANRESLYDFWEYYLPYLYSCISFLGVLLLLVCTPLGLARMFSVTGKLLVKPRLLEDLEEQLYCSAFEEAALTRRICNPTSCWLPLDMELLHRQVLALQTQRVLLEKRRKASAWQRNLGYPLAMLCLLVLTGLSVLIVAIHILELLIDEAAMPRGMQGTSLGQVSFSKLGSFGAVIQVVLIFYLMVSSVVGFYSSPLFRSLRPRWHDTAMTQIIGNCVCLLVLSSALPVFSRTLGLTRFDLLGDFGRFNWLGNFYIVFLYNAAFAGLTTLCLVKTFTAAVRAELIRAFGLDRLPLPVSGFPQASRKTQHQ

[2] = target: T1, Flag tagged-human Lmbr1l (limb region 1 like, LMBR1L) (human); assay: anti-FLAG co-IP from HEK293T lysate + LC-MS/MS, vs empty vector
[3] = target: FLAG-tagged β-catenin (Homo sapiens (Human)) (UniProt P35222); assay: co-IP (anti-FLAG M2 agarose) from co-transfected HEK293T cells, anti-HA immunoblot (FIG. 26A)

Row | binding [1] | binding [2] | binding [3] | Substance
1 | binds | binds |  | GSK3β (GSK3B) (from UniProt P49841 1-420) (enzyme)
2 |  |  | binds | HA-tagged GP78 (from UniProt Q9UKV5 1-643) (enzyme)
3 | binds | binds |  | zinc and ring finger 3 (ZNRF3) (from UniProt Q9ULT6 56-936) (enzyme)
